This is an account of results in PubChem BioAssay AID2685 (National Center for Advancing Translational Sciences (NCATS), 2010).

This is one part of the list. These are further read-outs of the screen, such as a control signal, another cell line or another target. No call is given for them. Most of these compounds were active or inconclusive in the main read-out, so they are no random draw. The note in brackets gives the kind of curve behind each potency; many fits are weak.

The nature of the assay: qHTS Assay for Lipid Storage Modulators in Drosophila S3 Cells.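 As to cell number change: cells counted by Cell Tracker Red CMTPX staining in the red channel.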 As to conditions: BODIPY lipid droplet fluorescence, 18-24 h; for cell number change: measured here: cell count max response, cells fed with added oleic acid. In short, it runs like this: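 Drosophila S3 cells loaded with oleic acid (400 uM, as added) and compounds at several concentrations; lipid droplets imaged by 488-nm laser-scanning cytometry, 500–530 nm intensity and object ratio to cell channel. Percent activity normalized to 20 uM Triacsin C.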
(Quantitative high-throughput screening tests each substance at several concentrations.)

Where [1] appears, read: measured here: cell number channel AC50, cells fed with added oleic acid.
Where [2] appears, read: measured here: lipid fluorescence (Fed channel) AC50, cells fed with added oleic acid.

With `CC(=O)c1cccc(NC(=O)C2C(c3ccccc3)C2(Cl)Cl)c1` (stereo not given), the cell number change worked out at 38.4%.

`COc1ccc(-n2c(=O)/c(=C\c3cccs3)s/c2=C(/C#N)C(=O)NCCN2CCOCC2)cc1`: the cell number change was 45.3%. Consider `CCOC(=O)c1nnn(-c2nonc2N)c1-c1ccccc1`, for which the cell number change is -11.1%. Also, the AC50 under setting [1] is 6.51 µM [rising, single point].

As for `CCCC(c1nnnn1C1CCCC1)N1CCN(c2ccccc2F)CC1` (stereo not given), the cell number change came out at 1.36%.

As to `CCOc1ccc(C2NC(=O)CCC2[N+](=O)[O-])cc1` (stereo not given), the cell number change is 3.52%. The AC50 under setting [2] was 14.6 µM [rising, single point].

With `CC(=O)Nc1ccc(S(=O)(=O)N[C@@H](C)C(=O)OCc2ccc(Cl)cc2)cc1`, the cell number change is -24.1%. Besides, the AC50 under setting [2] is 29.1 µM [falling, single point]. On to `S=C(NCc1ccco1)NCC1CCCO1` (stereo not given), for which the cell number change was -15.1%. Also, the AC50 under setting [2] was 4.61 µM [falling, single point]. For `O=C(CSCc1ccc(Br)cc1)NCc1ccccn1`, the cell number change is -23.3%. In addition, the AC50 under setting [2] was 4.11 µM [rising, single point].

In the case of `COc1ccc(CCNC(=O)c2cnc3ccccn3c2=O)cc1`, the cell number change came to 15.9%. The AC50 under setting [2] was 1.46 µM [rising, partial curve]. Turning to `CCOCCOC(=O)C1=C(C)NC(=O)NC1c1cc2c(cc1Br)OCO2` (stereo not given), the cell number change came out at 8.2%. The AC50 under setting [2] was 29.1 µM [rising, single point]. On to `Nc1c(C(=O)NCC2CCCO2)sc2nc3c(c(-c4ccco4)c12)CC/C3=C\c1ccco1` (stereo not given), for which the AC50 under setting [2] was 9.2 µM [falling, partial curve]. For the compound `Cc1nc(SC2C=CS(=O)(=O)C2)n[nH]1` (stereo not given), the cell number change was 4.33%. Also, the AC50 under setting [2] was 0.0058 µM [rising, full curve, poor fit]. With `COc1cc(/C=N/NC(=O)c2ccncc2)ccc1OC(=O)c1cc(OC)c(OC)c(OC)c1`, the cell number change came to 22.6%. For the same compound, under setting [2], the AC50 was 29.1 µM [rising, single point]. For the compound `Cc1ccc(NC(=O)Cc2n[nH]c(=O)c3ccccc23)cc1S(=O)(=O)N1CCCCCC1`, the cell number change is -7.93%. Also, under setting [2], the AC50 is 0.0517 µM [rising, full curve, poor fit]. For the compound `COC(=O)c1cc2ccsc2n1Cc1cccc(F)c1`, the cell number change stood at 60.1%. Besides, the AC50 under setting [1] is 29.1 µM [rising, single point]. Take `CC(=O)NC1C(=O)N=C(SC(C)C(=O)Nc2cccc(Cl)c2)NC1=O` (stereo not given): the cell number change was -10.2%. Also, the AC50 under setting [1] was 0.164 µM [falling, full curve, poor fit]. As to `Cc1ccc2nc(SCC(=O)c3ccc4c(c3)OCO4)[nH]c2c1`, the cell number change is -1.93%. Under setting [1], the AC50 is 0.731 µM [rising, full curve]. Further, the AC50 under setting [2] is 1.3 µM [rising, full curve].

On to `CC(C)CC(=O)Nc1ccccc1N1CCOCC1`, for which the cell number change is -57.2%. Further, the AC50 under setting [1] was 23.1 µM [falling, single point]. On to `Cc1ccc2c(c1)cc(CN(Cc1cccnc1)C(=O)NCc1ccccc1)c1nnnn12`, for which the AC50 was 1.84 µM [rising, partial curve] under setting [1] and 2.31 µM [rising, partial curve] under setting [2]. `Nc1nc(CSc2ncccn2)nc(Nc2ccccc2)n1`: the cell number change was 5.76%. In the case of `O=C(CSc1ccc2c(c1)OCCO2)Nc1ccc(Br)cn1`, the cell number change is 15.9%. Further, the AC50 under setting [1] is 0.00411 µM [rising, full curve, poor fit]. For the compound `COc1ccc2oc(C(=O)N(C)CCOc3ccc(Cl)cc3)c(C)c2c1`, the cell number change was -9.67%. For the same compound, the AC50 under setting [2] is 0.58 µM [rising, single point]. As to `CCN(CC(=O)NCc1cccs1)S(=O)(=O)c1ccc([N+](=O)[O-])cc1`, the cell number change was -8.12%. Besides, under setting [2], the AC50 is 0.651 µM [rising, full curve, poor fit]. Take `COc1ccccc1-c1nn(-c2ccccc2)cc1C(=O)NC1CC1`: the cell number change is -10.9%. The AC50 under setting [2] is 0.291 µM [rising, full curve, poor fit]. `Cc1ccccc1C(=O)NN1CC(C(=O)OCc2ccc(Cl)c(Cl)c2)CC1=O` (stereo not given): the cell number change stood at 16.6%. Further, the AC50 under setting [1] is 0.82 µM [rising, full curve, poor fit]. Also, the AC50 under setting [2] is 2.59 µM [rising, full curve]. For the compound `C/C(=N\NC(=O)c1csc(C)c1C)c1ccc(C)s1`, the cell number change is 32%. For the same compound, the AC50 under setting [1] was 29.1 µM [rising, single point]. For the same compound, the AC50 under setting [2] is 23.1 µM [rising, single point]. In the case of `Cc1ccc(C(=O)c2cc3c(cc2[N+](=O)[O-])OCCO3)cc1`, the cell number change was -4.62%. Besides, the AC50 under setting [2] is 25.9 µM [falling, partial curve].

Take `CCSc1nc2cc(OC)c(OC)cc2c(=O)n1CC`: the AC50 under setting [2] was 5.8 µM [rising, single point]. `CCOC(=O)c1cnn(C)c1NC(=O)c1ccc([N+](=O)[O-])cc1`: the cell number change was 2.63%. For the same compound, under setting [2], the AC50 is 3.55 µM [rising, single point]. As for `N/C(=N\O)c1ccc(N2CCN(c3ncccc3C(F)(F)F)CC2)nc1`, the cell number change was -13.6%. Also, the AC50 under setting [2] was 20.6 µM [falling, single point]. As to `COc1cc2c(cc1NC(=O)COC(=O)[C@@H](NS(=O)(=O)c1ccccc1)C(C)C)oc1ccccc12`, the cell number change was -9.51%. For the same compound, the AC50 under setting [2] is 20.6 µM [falling, single point]. For the compound `NC(N)=NS(=O)(=O)c1ccc(NC(=S)NC(=O)/C=C/c2cccs2)cc1`, the cell number change is 25.4%. For the compound `O=C(O)CC/C(=C\c1ccc(N2CCOCC2)c([N+](=O)[O-])c1)c1nc2ccccc2s1`, the AC50 under setting [1] was 0.146 µM [falling, single point]. Consider `NC(=O)CC(NC(=O)c1ccccc1)c1ccc(NCc2ccc(F)cc2)c([N+](=O)[O-])c1` (stereo not given), for which the cell number change was determined as 1.59%. Besides, the AC50 under setting [2] is 32.6 µM [falling, partial curve, poor fit]. For `CC(=O)c1coc2ccc(OCCN3CCCCC3)cc12`, the cell number change is -0.778%.

In the case of `O=C(COc1ccc(Cl)cc1)NNC(=O)CSc1nncs1`, the cell number change is 41.9%. Turning to `CCc1cccc(NS(=O)(=O)c2ccc3c(c2)n(C)c(=O)n3C)c1`, the cell number change was -18.3%. Take `CCOC(=O)/C(=C/c1c(C)n(C)c2ccc([N+](=O)[O-])cc12)C(C)=O`: the cell number change came to 0.454%. Moreover, the AC50 under setting [2] is 23.1 µM [falling, single point]. In the case of `Cc1c(C(=O)OCC(=O)N(C)Cc2ccc(Cl)cc2)oc2ccccc12`, the cell number change is -3.88%. Under setting [2], the AC50 was 0.116 µM [rising, full curve, poor fit].

Take `CCNC(=S)N/N=C/c1ccc(OCc2ccc(C(=O)OC)cc2)cc1`: the cell number change was found to be 30.9%. Further, the AC50 under setting [1] was 0.0326 µM [rising, full curve, poor fit]. Take `CC(C)Oc1ccc(C(=O)N2CCCc3ccccc32)cc1`: the cell number change was -16.9%. Moreover, the AC50 under setting [2] was 0.184 µM [rising, full curve, poor fit].

For the compound `COc1ccc(N(CC(=O)N2CCN(Cc3ccccc3)CC2)S(C)(=O)=O)cc1`, the cell number change worked out at 8.56%. Besides, the AC50 under setting [2] is 0.58 µM [rising, single point].

As to `Cc1ccc(C2=NN(C(=O)CCCC(=O)O)C(c3ccc4c(c3)OCO4)C2)cc1` (stereo not given), the cell number change was found to be 9.85%. The AC50 under setting [2] is 29.1 µM [rising, single point].

For `O=C(COC(=O)c1ccccc1)NC12CC3CC(CC(C3)C1)C2`, the cell number change came to 9.84%. Also, the AC50 under setting [2] is 0.00461 µM [rising, full curve, poor fit]. For `COc1ccc(NC(=O)CCC(=O)N(Cc2ccc(OC)c(OC)c2)c2nccs2)cc1`, the cell number change is 3.74%. Under setting [2], the AC50 is 7.31 µM [rising, partial curve, poor fit]. Turning to `CC(=O)C1=C(C)NC(SCC(=O)c2ccc(F)cc2)=C(C#N)C1c1ccco1` (stereo not given), the cell number change was -5.42%. The AC50 under setting [2] is 4.11 µM [falling, single point]. With `O=C(c1ccc(-c2ccccc2)cc1)N1CCCC1`, the cell number change was -13.5%. The AC50 under setting [2] is 2.31 µM [rising, single point].

Take `CC1CN(C(=O)COC(=O)c2ccccc2O)CC(C)O1` (stereo not given): the cell number change is -6.41%. In the case of `CCCCOCCCNCC(=O)Nc1ccc(S(N)(=O)=O)cc1`, the cell number change is -24.8%.

With `O=C(/C=C\c1ccc2c(c1)OCO2)NC1(C(=O)Nc2ccc3c(c2)OCO3)CCCCC1`, under setting [2], the AC50 is 0.82 µM [rising, single point]. `CCOC(=O)c1cccnc1SCC(=O)Nc1ccc(C)cc1`: the cell number change is 29%. For the same compound, the AC50 under setting [1] was 4.61 µM [rising, full curve, poor fit]. For the same compound, the AC50 under setting [2] was 4.61 µM [rising, full curve]. For `Cc1[nH]c2ccccc2c1C(=O)C(=O)N1CCN(c2ccccc2F)CC1`, under setting [2], the AC50 is 14.6 µM [falling, partial curve, poor fit]. Take `CCCc1nc2c(sc3nc4c(cc32)COC(C)(C)C4)c(=O)o1`: the cell number change is 128%.

Regarding `O=C(NCc1ccccc1)c1cc2ccc(O)cc2oc1=O`, the cell number change is -10.1%. Also, the AC50 under setting [2] was 29.1 µM [rising, single point].

Take `CCN1CCN(c2nc(-c3cccnc3)nc3ccccc23)CC1`: the cell number change was determined as 172%. Further, under setting [1], the AC50 is 18.4 µM [rising, partial curve]. Further, the AC50 under setting [2] is 16.4 µM [rising, partial curve]. On to `COc1ccc(S(=O)(=O)N2CCN(C(=O)Cc3ccsc3)CC2)cc1`, for which the cell number change stood at 129%. Further, under setting [1], the AC50 is 0.116 µM [falling, full curve, poor fit]. Consider `O=C(NCc1ccco1)c1sc2ccccc2c1Cl`, for which the cell number change is -20.4%. Moreover, under setting [2], the AC50 was 7.31 µM [falling, single point].

As to `O=C(O)CCC(=O)Nc1ccc(C(=O)N2CCCCC2)cc1`, the cell number change is -5.16%. In addition, the AC50 under setting [2] is 2.06 µM [falling, partial curve].

With `COc1ccc(-c2nc3ccccc3c(=O)n2CCOc2cc(C)ccc2C)cc1`, the AC50 by setting is: under setting [1], 0.731 µM [rising, partial curve]; under setting [2], 1.03 µM [rising, full curve]. As to `O=C(Nc1ccccc1Cl)c1cccc(NC(=O)C2C3CC4OC(=O)C2C4C3)c1` (stereo not given), the cell number change was found to be 61%. For the same compound, the AC50 under setting [1] is 0.259 µM [rising, full curve].

Consider `CCc1nn(CC(=O)NCCCc2ccccc2)c(=O)c2cc3cc(F)ccc3n12`, for which the cell number change was -4.2%. Moreover, the AC50 under setting [2] is 29.1 µM [rising, single point]. With `CCC(Sc1nc(N)c(NC(=O)c2ccc(Br)o2)c(=O)[nH]1)C(=O)O` (stereo not given), the cell number change is 3.68%. Also, the AC50 under setting [2] was 6.51 µM [rising, single point]. In the case of `O=C(COC(=O)Cc1cccs1)Nc1ccccc1`, the cell number change was -3.3%. The half-maximal activity concentration (AC50) under setting [2] was 0.651 µM [rising, single point].

Usually AC50 stands for the concentration giving half of the maximal activity seen.
